In patent US10800811B2, “Pharmacologically active peptide compound, process for the preparation and use thereof” (Dipartimento di Scienze Biomediche e Biotecnologiche, priority 2016, dated 2020):
Part of at least one peptide drawing is inferred or uncertain, most often the ends. No end group written: not given here.

By UniProt entry, the sequences of proteins in these tests, tags left out.
UniProt P21796, whole entry: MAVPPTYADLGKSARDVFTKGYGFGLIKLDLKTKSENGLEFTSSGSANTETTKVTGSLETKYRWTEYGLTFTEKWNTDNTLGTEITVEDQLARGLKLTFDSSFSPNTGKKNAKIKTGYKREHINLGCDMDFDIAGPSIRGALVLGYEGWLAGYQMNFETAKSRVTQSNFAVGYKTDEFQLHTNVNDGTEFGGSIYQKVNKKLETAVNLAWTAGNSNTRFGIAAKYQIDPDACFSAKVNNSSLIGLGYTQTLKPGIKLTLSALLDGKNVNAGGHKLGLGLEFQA

Legend:
HeLa cell = assay: Pro-apoptotic effect in stable tumor cell; type: cell-based
VDAC1 = molecular target: T1, VDAC1 (Homo sapiens, UniProt P21796); assay: Single channel VDAC1 conductance recording in planar lipid bilayer; type: biochemical; conditions: 15 μM NHK1; +25 mV; 1 M KCl
T1 construct: His-tag (C); made in house; host or cells: Escherichia coli BL21 (DE3)

NSC34-SOD1-G93A cell = type: cell-based, mice; conditions: MTT after 24 hours
Protocol: The action of the said NHK1 peptide upon the complex VDAC1/SOD1-G93A, i.e. the complex formed by the interaction between protein VDAC1 and the mutant enzyme SOD1 (exactly the mutant G93A, where the glycine 93 was replaced by alanine) was evaluated by in vitro and in cellulo experiments, i.e. in the NSC34 cell line. NSC34 is a hybrid cell line obtained by fusing mice motor neurons with neuroblastoma cells. The NSC34 cell line is widely recognized as cell model of motor neurons and, following its transfection with mutated SOD1, it is considered a reference model of ALS [Cashman N R et al. Neuroblastoma×spinal cord (NSC) hybrid cell lines resemble developing motor neurons. Dev. Dyn. […]
The MTT assay is a colorimetric assay aimed to quantify the activity of dehydrogenase enzymes reducing 3-(4,5-dimethyltiazol-2-yl)-2,5-diphenyltetrazolium, yellow, to purple-blue formazan [Mosmann T., Rapid colorimetric assay for cellular growth and survival: application to proliferation and cytotoxicity assays. […]
Cells were seeded on 24-wells plates at a density of 80,000 cells/well, incubated for 24 hours and then transiently transfected with plasmid pEGFP-N1 expressing SOD1WT or SOD1-G93A or a mock. […] The MTT assay was read after 24 hours incubation. […]
The same vitality assay was repeated in the presence of the NHK1 peptide. […] The MTT assay was read after 24 hours incubation. […]

Sequence: IAAQLLAYYFT [NHK1, Isoleucine-Alanine-Alanine-Glutamine-Leucine-Leucine-Alanine-Tyrosine-Tyrosine-Phenylalanine-Threonine]
- Pro-apoptotic effect (HeLa cell): exherts a pro-apoptotic effect
- Effect on VDAC1 channel conductance (closed state) (VDAC1): the closed state was destabilized
- Reduction of the vitality drop due to SOD1-G93A (drop = 100%) (NSC34-SOD1-G93A cell; co-transfection pEGFP-N1-SOD1G93A + pCMS-mtDsRED-NHK1, P<0.01): 42%
- Vitality recover (NSC34-SOD1-G93A cell; expression of NHK1 in NSC34-SOD1-G93A): about 50%
